Results published in paper PMC4444253.
These are yes or no findings as the source states them, for the method shown. Binding seen in cells or lysates may run through a third protein.

Sequences of proteins named here, by UniProt entry; tags and fusion partners are left off. Residues count along the entry.
UniProt O00220, residues 24-468: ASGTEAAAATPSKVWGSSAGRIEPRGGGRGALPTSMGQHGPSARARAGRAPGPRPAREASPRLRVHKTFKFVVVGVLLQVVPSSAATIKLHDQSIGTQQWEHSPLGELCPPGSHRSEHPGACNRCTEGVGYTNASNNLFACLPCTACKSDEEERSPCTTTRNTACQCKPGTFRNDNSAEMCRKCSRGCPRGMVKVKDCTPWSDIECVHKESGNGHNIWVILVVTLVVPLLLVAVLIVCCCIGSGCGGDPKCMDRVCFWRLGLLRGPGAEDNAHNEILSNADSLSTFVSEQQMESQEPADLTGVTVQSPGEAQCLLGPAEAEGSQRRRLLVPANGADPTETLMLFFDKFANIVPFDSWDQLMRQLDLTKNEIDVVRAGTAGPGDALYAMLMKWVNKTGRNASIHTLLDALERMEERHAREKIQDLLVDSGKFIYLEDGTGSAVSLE
UniProt O14763, residues 56-440: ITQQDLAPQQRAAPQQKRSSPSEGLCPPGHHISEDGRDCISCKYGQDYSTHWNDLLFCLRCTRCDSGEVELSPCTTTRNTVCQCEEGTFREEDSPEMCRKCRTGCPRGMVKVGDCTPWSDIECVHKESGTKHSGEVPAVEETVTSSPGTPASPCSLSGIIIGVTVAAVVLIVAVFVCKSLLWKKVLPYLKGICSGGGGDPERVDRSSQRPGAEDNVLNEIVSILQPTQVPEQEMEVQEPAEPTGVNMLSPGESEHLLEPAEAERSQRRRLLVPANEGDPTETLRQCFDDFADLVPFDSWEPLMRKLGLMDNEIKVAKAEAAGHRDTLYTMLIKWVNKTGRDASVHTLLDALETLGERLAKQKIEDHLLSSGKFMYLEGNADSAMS
UniProt P15311: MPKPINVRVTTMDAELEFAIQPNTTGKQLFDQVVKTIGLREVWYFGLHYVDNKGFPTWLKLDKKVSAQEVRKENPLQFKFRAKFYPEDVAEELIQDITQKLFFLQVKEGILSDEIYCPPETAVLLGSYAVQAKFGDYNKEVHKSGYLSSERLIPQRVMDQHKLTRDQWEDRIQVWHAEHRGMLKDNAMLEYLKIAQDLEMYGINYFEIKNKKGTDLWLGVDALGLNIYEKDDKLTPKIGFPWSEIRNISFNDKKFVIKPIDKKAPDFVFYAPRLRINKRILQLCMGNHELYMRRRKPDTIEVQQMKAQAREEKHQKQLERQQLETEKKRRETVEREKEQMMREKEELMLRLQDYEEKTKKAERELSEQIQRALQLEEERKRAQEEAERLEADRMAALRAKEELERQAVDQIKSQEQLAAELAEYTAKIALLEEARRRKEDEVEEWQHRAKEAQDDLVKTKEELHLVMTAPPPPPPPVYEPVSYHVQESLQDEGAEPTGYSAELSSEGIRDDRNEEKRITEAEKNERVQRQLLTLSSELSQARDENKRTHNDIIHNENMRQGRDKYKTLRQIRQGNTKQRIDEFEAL

Key:
[1] = biological target: TRAIL-R1 (human (endogenous in HCT116 and SW480)) (UniProt O00220); assay: co-IP; cells stimulated or not with 5 μg/ml His-TRAIL, lysed in NP40-containing buffer, precleared and immunoprecipitated with 5 μg of anti-TRAIL-R1, anti-TRAIL-R2 or anti-GAPDH antibody; western blot
[2] = biological target: TRAIL-R2 (human (endogenous in HCT116 and SW480)) (UniProt O14763); assay: as above

In the case of ezrin (from UniProt P15311 1-586), the binding [1] is reported as “no binding” and the binding [2] is reported as “no binding”.
